The source of these data is article PMC5652741.

By UniProt entry, the sequences of proteins in these tests, tags left out.
UniProt Q16665: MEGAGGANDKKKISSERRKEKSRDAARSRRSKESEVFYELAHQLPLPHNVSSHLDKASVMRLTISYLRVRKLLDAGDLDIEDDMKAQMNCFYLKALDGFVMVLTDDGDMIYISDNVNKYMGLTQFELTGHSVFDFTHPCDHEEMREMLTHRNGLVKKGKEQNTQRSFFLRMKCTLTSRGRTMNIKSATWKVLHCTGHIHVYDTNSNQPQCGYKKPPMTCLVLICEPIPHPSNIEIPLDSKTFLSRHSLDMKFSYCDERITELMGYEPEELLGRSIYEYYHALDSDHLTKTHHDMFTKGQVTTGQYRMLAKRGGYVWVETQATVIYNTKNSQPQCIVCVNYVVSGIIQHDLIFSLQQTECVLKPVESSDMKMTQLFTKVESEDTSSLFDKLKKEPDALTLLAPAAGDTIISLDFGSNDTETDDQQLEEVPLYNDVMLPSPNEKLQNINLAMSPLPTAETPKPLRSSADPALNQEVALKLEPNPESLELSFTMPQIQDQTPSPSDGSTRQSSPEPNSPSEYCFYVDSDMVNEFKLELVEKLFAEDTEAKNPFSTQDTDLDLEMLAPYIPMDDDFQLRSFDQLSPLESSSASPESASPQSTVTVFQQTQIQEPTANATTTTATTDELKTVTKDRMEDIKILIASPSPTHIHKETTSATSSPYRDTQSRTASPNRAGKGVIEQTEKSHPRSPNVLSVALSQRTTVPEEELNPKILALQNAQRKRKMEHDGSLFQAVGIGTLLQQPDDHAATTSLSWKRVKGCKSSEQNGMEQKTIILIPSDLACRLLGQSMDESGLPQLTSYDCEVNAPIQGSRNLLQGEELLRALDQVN

Results are given in words; binding and its absence hold for the method and conditions named. Binding seen in cells or lysates may run through a third protein. Some results given as binding are weak or reduced against the parent protein; the word gives no strength.

The target of this experiment is Hypoxia-Inducible Factor-1α (human (endogenous in U87)) (UniProt Q16665). The experiment is described as follows: co-IP; lysates (RIPA lysis buffer) of U87 cells stably overexpressing TFF3, immunoprecipitated with anti-TFF3 or anti-HIF-1α antibody (Pierce Protein A/G Magnetic IP/Co-IP Kit), then immunoblot.

B1: Trefoil factor 3 (protein, UniProt Q07654 22-80)
chain: EEYVGLSANQCAVPAKDRVDCGYPHVTPKECNNRGCCFDSRIPGVPWCFKPLQEAECTF
B1: the binding result is reported as “binds”.
